PubChem BioAssay AID743121 – NCATS | 2013

Test: 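Knock-downs that sensitise breast cancer cells to camptothecin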 (primary screen)
System: MDA-MB-231 cells, a human breast cancer line
Knock-down reagent: single siRNA against human genes, 20 nM siRNA (0.8 pmol per well)
Time to read-out: 120 h (drug added 48 h after transfection, read 72 h later)
Treatment: camptothecin 20 nM (about EC30) for 72 h; vehicle 0.1% DMSO in parallel plates
Detection: 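Cell viability by ATP luminescence (CellTiter-Glo) as % of non-targeting siRNA wells, and the log2 ratio of viability without drug over viability with camptothecin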
Reading the numbers: log2 vehicle/camptothecin viability: higher = stronger sensitisation to camptothecin; viability with camptothecin: higher = more viable cells
Units: viability with camptothecin in % of control
Hit rule: 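Active genes have an RSA gene-level p-value below 0.001, computed from the ratios of their separate siRNAs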
In all, the deposit lists about 26,000 reagents; shown is a part drawn at random. Over the whole deposit, 167 (0.63%) are marked active. 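Calls are per gene from RSA p-values that are not deposited; an individual active-marked siRNA can sensitise only weakly.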 The numbers tell different reagents against one gene apart. Further read-outs or replicates are left out here.

{"Target gene":"CERKL (GeneID 375298)","siRNA no.":1,"log2 vehicle/camptothecin viability":-0.2,"viability with camptothecin":93.4,"Call":"inactive"}
{"Target gene":"CERKL (GeneID 375298)","siRNA no.":2,"log2 vehicle/camptothecin viability":-0.215,"viability with camptothecin":49,"Call":"inactive"}
{"Target gene":"CERKL (GeneID 375298)","siRNA no.":3,"log2 vehicle/camptothecin viability":-0.424,"viability with camptothecin":57,"Call":"inactive"}
{"Target gene":"CERKL (GeneID 375298)","siRNA no.":4,"log2 vehicle/camptothecin viability":-0.603,"viability with camptothecin":98.9,"Call":"inactive"}
{"Target gene":"ANKFN1 (GeneID 162282)","siRNA no.":1,"log2 vehicle/camptothecin viability":-0.0111,"viability with camptothecin":79.9,"Call":"inactive"}
{"Target gene":"ANKFN1 (GeneID 162282)","siRNA no.":2,"log2 vehicle/camptothecin viability":0.517,"viability with camptothecin":64.3,"Call":"inactive"}
{"Target gene":"ANKFN1 (GeneID 162282)","siRNA no.":3,"log2 vehicle/camptothecin viability":-0.268,"viability with camptothecin":64.9,"Call":"inactive"}
{"Target gene":"PAFAH1B3 (GeneID 5050)","siRNA no.":1,"log2 vehicle/camptothecin viability":-0.587,"viability with camptothecin":56.8,"Call":"inactive"}
{"Target gene":"PAFAH1B3 (GeneID 5050)","siRNA no.":2,"log2 vehicle/camptothecin viability":-0.357,"viability with camptothecin":71.5,"Call":"inactive"}
{"Target gene":"PAFAH1B3 (GeneID 5050)","siRNA no.":3,"log2 vehicle/camptothecin viability":-0.0463,"viability with camptothecin":91.6,"Call":"inactive"}
{"Target gene":"FUS (GeneID 2521)","siRNA no.":1,"log2 vehicle/camptothecin viability":-0.0984,"viability with camptothecin":95.1,"Call":"inactive"}
{"Target gene":"FUS (GeneID 2521)","siRNA no.":2,"log2 vehicle/camptothecin viability":-0.185,"viability with camptothecin":53.1,"Call":"inactive"}
{"Target gene":"FUS (GeneID 2521)","siRNA no.":3,"log2 vehicle/camptothecin viability":-0.35,"viability with camptothecin":51.9,"Call":"inactive"}
{"Target gene":"FUS (GeneID 2521)","siRNA no.":4,"log2 vehicle/camptothecin viability":-0.298,"viability with camptothecin":94.7,"Call":"inactive"}
{"Target gene":"IRF2BP2 (GeneID 359948)","siRNA no.":1,"log2 vehicle/camptothecin viability":-0.14,"viability with camptothecin":103,"Call":"inactive"}
{"Target gene":"IRF2BP2 (GeneID 359948)","siRNA no.":2,"log2 vehicle/camptothecin viability":-0.675,"viability with camptothecin":93.7,"Call":"inactive"}
{"Target gene":"IRF2BP2 (GeneID 359948)","siRNA no.":3,"log2 vehicle/camptothecin viability":-0.274,"viability with camptothecin":90.6,"Call":"inactive"}

In a second layout: results already given
{"Target gene": "CERKL (GeneID 375298)", "siRNA no.": 2, "log2 vehicle/camptothecin viability": -0.215, "viability with camptothecin": 49, "Call": "inactive"}
{"Target gene": "CERKL (GeneID 375298)", "siRNA no.": 3, "log2 vehicle/camptothecin viability": -0.424, "viability with camptothecin": 57, "Call": "inactive"}

Further entries follow.
{"Target gene":"SNRK (GeneID 54861)","siRNA no.":1,"log2 vehicle/camptothecin viability":-0.0356,"viability with camptothecin":112,"Call":"inactive"}
{"Target gene":"SNRK (GeneID 54861)","siRNA no.":2,"log2 vehicle/camptothecin viability":-0.109,"viability with camptothecin":58.3,"Call":"inactive"}
{"Target gene":"SNRK (GeneID 54861)","siRNA no.":3,"log2 vehicle/camptothecin viability":-0.432,"viability with camptothecin":88.3,"Call":"inactive"}
{"Target gene":"SNRK (GeneID 54861)","siRNA no.":4,"log2 vehicle/camptothecin viability":-0.585,"viability with camptothecin":66.3,"Call":"inactive"}
{"Target gene":"GREB1L (GeneID 80000)","siRNA no.":1,"log2 vehicle/camptothecin viability":-0.484,"viability with camptothecin":88.1,"Call":"inactive"}
{"Target gene":"GREB1L (GeneID 80000)","siRNA no.":2,"log2 vehicle/camptothecin viability":0.0976,"viability with camptothecin":62.6,"Call":"inactive"}
{"Target gene":"GREB1L (GeneID 80000)","siRNA no.":3,"log2 vehicle/camptothecin viability":0.0968,"viability with camptothecin":97.7,"Call":"inactive"}
{"Target gene":"GREB1L (GeneID 80000)","siRNA no.":4,"log2 vehicle/camptothecin viability":-0.0715,"viability with camptothecin":108,"Call":"inactive"}
{"Target gene":"MLNR (GeneID 2862)","siRNA no.":1,"log2 vehicle/camptothecin viability":0.106,"viability with camptothecin":46.8,"Call":"inactive"}
{"Target gene":"MLNR (GeneID 2862)","siRNA no.":2,"log2 vehicle/camptothecin viability":-0.183,"viability with camptothecin":75,"Call":"inactive"}
{"Target gene":"MLNR (GeneID 2862)","siRNA no.":3,"log2 vehicle/camptothecin viability":-0.344,"viability with camptothecin":38.3,"Call":"inactive"}
{"Target gene":"MLNR (GeneID 2862)","siRNA no.":4,"log2 vehicle/camptothecin viability":-0.136,"viability with camptothecin":102,"Call":"inactive"}
{"Target gene":"C3orf38 (GeneID 285237)","siRNA no.":1,"log2 vehicle/camptothecin viability":-0.411,"viability with camptothecin":71.6,"Call":"inactive"}
{"Target gene":"C3orf38 (GeneID 285237)","siRNA no.":2,"log2 vehicle/camptothecin viability":-0.126,"viability with camptothecin":63,"Call":"inactive"}
{"Target gene":"C3orf38 (GeneID 285237)","siRNA no.":3,"log2 vehicle/camptothecin viability":-0.194,"viability with camptothecin":94.8,"Call":"inactive"}
{"Target gene":"C3orf38 (GeneID 285237)","siRNA no.":4,"log2 vehicle/camptothecin viability":-0.0757,"viability with camptothecin":37.9,"Call":"inactive"}
{"Target gene":"ABCA4 (GeneID 24)","siRNA no.":1,"log2 vehicle/camptothecin viability":-0.187,"viability with camptothecin":68.5,"Call":"inactive"}
{"Target gene":"ABCA4 (GeneID 24)","siRNA no.":2,"log2 vehicle/camptothecin viability":0.318,"viability with camptothecin":68.6,"Call":"inactive"}
{"Target gene":"ABCA4 (GeneID 24)","siRNA no.":3,"log2 vehicle/camptothecin viability":-0.00172,"viability with camptothecin":98.3,"Call":"inactive"}
{"Target gene":"ABCA4 (GeneID 24)","siRNA no.":4,"log2 vehicle/camptothecin viability":0.0154,"viability with camptothecin":44.6,"Call":"inactive"}
